At least one structure is not confirmed: it was looked up by name or label, or the drawing left a doubt.
What was measured:
Type in all cases: physicochemical
[1] = Oxidation stability of reduced coenzyme Q10 in glycerin with ascorbic acid or related compound, stirred at 45° C. in air; settings: 100 parts glycerin, 1 part reduced coenzyme Q10 crystal, 1 part additive, after 24 hours
[2] = Oxidation stability of reduced coenzyme Q10 in ethanol with ascorbic acid or related compound, stirred at 45° C. in air; settings: 100 parts ethanol, 1 part reduced coenzyme Q10 crystal, 1 part additive, after 24 hours
[3] = Oxidation stability of reduced coenzyme Q10 in ethanol solution with additive, stirred in air, HPLC weight ratio; settings: after 24 hours
[4] = Oxidation stability of reduced coenzyme Q10 crystal ground with additive, standing in air at 25° C.; settings: solid: 2 g crystal ground with 0.2 g additive in a mortar, four days at 25° C. in air
[5] = ethanol solution, 1 part by weight reduced coenzyme Q10 and 0.1 parts additive per 100 parts ethanol, stirred in air at 23° C.
[6] = Reference Example 1: ethanol solution, 0.1 parts by weight antioxidant per 100 parts ethanol, stirred in air at 25° C.

| Structure (SMILES) | R: the weight ratio of reduced coenzyme Q10/oxidized coenzyme Q10 [1] | R: The weight ratio of reduced coenzyme Q10/oxidized coenzyme Q10 [2] | R: The weight ratio of reduced coenzyme Q10/oxidized coenzyme Q10 [3, 5] | R: The weight ratio of reduced coenzyme Q10/oxidized coenzyme Q10 [4] | R: The weight ratio of reduced coenzyme Q10/oxidized coenzyme Q10 [3, 6] |
| --- | --- | --- | --- | --- | --- |
| CCCCCCCCCCCCCCCC(=O)OC[C@H](O)[C@H]1OC(=O)C(O)=C1O [L-ascorbyl palmitate] | 86.0/14.0 | 98.8/1.2 | 95.4/4.6 | 87.1/12.9 | – |
| Cc1cc(C(C)(C)C)c(O)c(C(C)(C)C)c1 [Butylhydroxytoluene] | – | – | – | – | 51.1/48.9 |
| O=c1c(O)c(-c2ccc(O)c(O)c2)oc2cc(O)cc(O)c12 [Qurcetin] | – | – | – | – | 3.5/96.5 |
| CCCCCCCCCCCCCCCCCC(=O)OC[C@H](O)[C@H]1OC(=O)C(O)=C1O [L-ascorbyl stearate] | – | – | 95.8/4.2 | 85.9/14.1 | – |
| C[C@@H]1O[C@@H](OC[C@H]2O[C@@H](Oc3c(-c4ccc(O)c(O)c4)oc4cc(O)cc(O)c4c3=O)[C@H](O)[C@@H](O)[C@@H]2O)[C@H](O)[C@H](O)[C@H]1O [Rutin] | – | – | – | – | 16.1/83.9 |

— patent US9532957B2, “Method of stabilizing reduced coenzyme Q10” (Kaneka Corporation, priority 2001, dated 2017)
